Measured values from the supplement of paper PMC10849652.
The other results are listed elsewhere or left out.

Sequences of proteins named here, by UniProt entry; tags and fusion partners are left off. A change or cut given only in a name is not applied to a line headed by its entry.
UniProt Q9Y3F4: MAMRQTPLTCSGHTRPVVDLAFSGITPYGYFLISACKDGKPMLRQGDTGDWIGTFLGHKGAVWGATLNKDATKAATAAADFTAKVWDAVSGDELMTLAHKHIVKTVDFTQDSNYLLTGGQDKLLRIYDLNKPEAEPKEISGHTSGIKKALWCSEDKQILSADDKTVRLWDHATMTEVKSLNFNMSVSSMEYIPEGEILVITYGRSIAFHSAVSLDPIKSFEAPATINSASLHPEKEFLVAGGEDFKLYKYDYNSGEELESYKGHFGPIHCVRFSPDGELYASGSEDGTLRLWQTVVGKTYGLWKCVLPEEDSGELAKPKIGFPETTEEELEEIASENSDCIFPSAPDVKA
UniProt Q15545, whole entry, looked up: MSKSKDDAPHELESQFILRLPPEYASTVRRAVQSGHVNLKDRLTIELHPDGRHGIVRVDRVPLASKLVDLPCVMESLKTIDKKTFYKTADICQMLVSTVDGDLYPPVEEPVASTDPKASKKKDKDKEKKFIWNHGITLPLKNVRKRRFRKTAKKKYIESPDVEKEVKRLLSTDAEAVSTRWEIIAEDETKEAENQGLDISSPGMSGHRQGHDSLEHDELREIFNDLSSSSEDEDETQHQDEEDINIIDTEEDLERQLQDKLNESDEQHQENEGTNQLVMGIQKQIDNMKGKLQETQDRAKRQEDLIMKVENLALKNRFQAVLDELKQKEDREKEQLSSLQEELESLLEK
UniProt Q8NHG7: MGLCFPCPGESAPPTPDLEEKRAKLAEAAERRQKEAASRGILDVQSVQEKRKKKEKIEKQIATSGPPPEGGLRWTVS

Legend:
Experiment in all cases: log2 fold change, soluble protein after heating vs DMSO (PISA); higher = thermal stabilisation; K562 cells, 10 uM, 30 min; active = over 0.2 and 3.5 SD of the protein, either way, in both replicates (recomputed)
[1] = compound: C1=CC=C(C=C1)[C@H](COC2=CC3=C(C=C2)NC(=O)N3)NC(=O)C4=CC=CN(C4=O)CC5=CC(=C(C=C5)F)F
How it was run: (§1)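 K562 cells at 2×10^6 cells/mL were treated for 30 min with 10 μM compound, and aliquots were heated for 3 min over 48°C-58°C before pooling. Extraction used PBS with 0.5% NP-40 at 4°C, and soluble protein was the supernatant after 21,000xg for 90 min, measured by TMTpro 16plex LC-MS/MS with channel sums equalised. Thermal stability values, relative to control samples and from duplicates, are log2 fold changes.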

[2] = compound: CC1=C(SC2=C1C(=N[C@H](C3=NN=C(N32)C)CC(=O)N)C4=CC=C(C=C4)Cl)C
How it was run: as §1

[3] = compound: CC1=C2C(=CC=C1)N=C(N(C2=O)C3=CC=CC=C3C)CN4C=NC5=C(N=CN=C54)N
How it was run: as §1

[4] = compound: Cc1sc2c(c1C)C(c1ccc(Cl)cc1)=N[C@@H](CC(=O)OC(C)(C)C)c1nnc(C)n1-2
How it was run: as §1

[5] = compound: c1ccc([C@@H]2C[C@H]2NC2CCNCC2)cc1
How it was run: as §1

Measured: log2 fold change

STRAP isoform 2 (UniProt Q9Y3F4)
inactive: [1] -0.004 | [2] 0.016 | [3] 0.007 | [4] 0.002 | [5] -0.007

TAF7 (UniProt Q15545)
inactive: [1] 0.047 | [2] 0.086 | [3] -0.036 | [4] -0.015 | [5] 0

SVIP (UniProt Q8NHG7)
inactive: [1] 0.036 | [2] 0.046 | [3] 0.028 | [4] -0.084 | [5] -0.022
